Source: PubChem BioAssay AID2685 (National Center for Advancing Translational Sciences (NCATS), 2010)
Some of the results follow. The main result of the screen is listed elsewhere. These columns were measured beside it and carry no call. Most of these compounds were active or inconclusive in the main read-out, so they are no random draw. Words in brackets tell the shape of the fitted curve; partial curves, single points and poor fits give uncertain potencies.

Experiment: qHTS Assay for Lipid Storage Modulators in Drosophila S3 Cells;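 as to cell number change: cells counted by Cell Tracker Red CMTPX staining in the red channel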
Conditions: BODIPY lipid droplet fluorescence, 18-24 h; for cell number change: measured here: cell count max response, cells fed with added oleic acid
Summary of the method: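 Drosophila S3 cells loaded with oleic acid (400 uM, as added) and compounds at several concentrations; lipid droplets imaged by 488-nm laser-scanning cytometry, 500–530 nm intensity and object ratio to cell channel. Percent activity normalized to 20 uM Triacsin C.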

[1] = measured here: lipid fluorescence (Fed channel) AC50, cells fed with added oleic acid
[2] = measured here: cell number channel AC50, cells fed with added oleic acid

Structure (SMILES)	cell number change [%]	AC50 [1]	AC50 [2]
CCCc1ccc2oc(C(=O)NCCN3CCCC(O)C3)c(C)c2c1 (configuration not stated)	0.552	6.51 µM [falling, single point]	–
COc1ccc(NC(=O)c2ccc(OCC3CCCO3)cc2)cc1OC (configuration not stated)	-1.3	0.231 µM [rising, full curve, poor fit]	–
COc1cc(NC(=O)COc2ccccc2C)ccc1NC(=O)c1ccco1	30.9	18.4 µM [falling, single point]	29.1 µM [rising, single point]
CCc1ccc(NC(=O)Cn2c(=O)n(CCCC(=O)NCc3ccco3)c(=O)c3ccccc32)cc1	-43.8	–	18.4 µM [falling, single point]
CC(Sc1nnc(-c2ccc(C(C)(C)C)cc2)n1C)C(N)=O (configuration not stated)	-9.68	–	–
CCOc1ccc(NS(=O)(=O)c2ccc(C)c(C(N)=O)c2)cc1	-18.5	0.517 µM [falling, partial curve, poor fit]	–
O=C1CC(N2CCN(c3ccc(C(=O)c4ccc(F)cc4)cc3)CC2)C(=O)N1 (configuration not stated)	-1.01	–	–
CCc1cccc(NC(=O)CCCn2c(=O)[nH]c3ccsc3c2=O)c1	20.6	–	0.411 µM [falling, single point]
COc1cccc(C2=NNC(=NCc3ccccc3)SC2)c1	4.4	–	–
Cc1cccc(C)c1NC(=O)CSc1nnnn1-c1ccc(C(=O)O)cc1	0.0585	–	–
CC(Oc1ccc(F)cc1)C(=O)Nc1cc(S(=O)(=O)N2CCOCC2)ccc1N1CCN(C)CC1 (configuration not stated)	–	–	0.103 µM [rising, full curve, poor fit]
O=C(O)C1CCCCC1C(=O)Nc1ccc(S(=O)(=O)N2CCCCC2)cc1 (configuration not stated)	17.9	0.116 µM [rising, single point]	–
O=C(NCc1ccc(F)cc1)C(Cc1ccccc1)n1cccc1 (configuration not stated)	-16.6	0.731 µM [falling, full curve]	–
Cc1cc2ccccc2nc1SCC(=O)NC1CCCC1	2.46	–	–
Cc1cc(Br)cc(Br)c1OCC(=O)NNC(=O)c1ccoc1C	–	20.6 µM [rising, single point]	–
O=C1OC(N2CCN(C(=O)c3ccco3)CC2)c2ccccc21 (configuration not stated)	-7.9	–	–
COC(=O)c1c(NC(=O)CN2C(=O)c3ccccc3C2=O)sc(Cc2ccc3c(c2)OCO3)c1C	3.66	1.64 µM [rising, full curve]	–
O=C(COc1ccc(C(=S)N2CCC(Cc3ccccc3)CC2)cc1)N1CCOCC1	20.8	0.1 µM [rising, full curve, poor fit]	–
COc1cccc(C(=O)N2N=C(c3cccc(OC)c3)CC2(O)C(F)(F)F)c1 (configuration not stated)	-2.87	0.461 µM [falling, single point]	–
CC(=O)N1CCCc2cc(S(=O)(=O)N3CCCC(C(=O)N4CCN(c5cc(C)ccc5C)CC4)C3)ccc21 (configuration not stated)	-19.6	–	–
C/C=C/c1ccc(OCCCNC(C)CC)c(OC)c1 (configuration not stated)	-36.2	29.1 µM [falling, single point]	8.2 µM [falling, partial curve]

Structure (SMILES)	cell number change [%]	AC50 [1]	AC50 [2]
Cc1csc(NC(=O)CN2C(=O)c3ccccc3S2(=O)=O)n1	18.4	0.731 µM [rising, full curve]	–
COc1ccc(C(=O)Nc2ccc(S(=O)(=O)N3CCCC3)cc2)cc1[N+](=O)[O-]	-26.3	0.891 µM [falling, full curve]	–
COc1ccc(Cl)cc1C(=O)NNC(=O)c1ccncc1	20.4	–	–
COc1ccc(CN2CCNC(=O)C2CC(=O)NCCSc2nccn2C)cc1OC (configuration not stated)	15.7	29.1 µM [falling, single point]	–
Cc1ccsc1C(=O)OCC(=O)NCc1ccco1	-2.97	0.651 µM [rising, single point]	–
Cc1cc(C)cc(C(=O)NC(=S)Nc2ccc3[nH]c(=O)[nH]c3c2)c1	54.4	10.3 µM [rising, partial curve]	–
COc1cccc(C2(c3cccc(OC)c3)CC2C(=O)Nc2ccccc2Cl)c1 (configuration not stated)	-15.1	20.6 µM [falling, single point]	–
CC(OC(=O)c1ccc(Cl)nc1)C(=O)Nc1ccc(S(=O)(=O)N2CCCC2)cc1 (configuration not stated)	–	25.9 µM [falling, single point]	2.06 µM [rising, partial curve, poor fit]
O=C(CN1C(=O)CSc2ncccc21)Nc1cccc(Cl)c1	11	1.46 µM [rising, partial curve]	–
CC1(c2nnc(-c3ccc(Cl)cc3)o2)CC(c2cccc(Cl)c2)=NO1 (configuration not stated)	3.12	–	–
O=C1CSC(c2cn(-c3ccccc3)nc2-c2cc3ccccc3oc2=O)N1Cc1ccco1 (configuration not stated)	-13.1	1.64 µM [falling, partial curve]	–
CC(=O)Nc1ccc(NC(=O)c2ccc(C)c(S(=O)(=O)Nc3cccc(C)c3)c2)cc1	5.44	29.1 µM [falling, single point]	–
CC(C)(C)C(=O)/C(C#N)=c1\s/c(=C\c2ccncc2)c(=O)n1CCCN1CCOCC1	1.56	0.13 µM [rising, full curve, poor fit]	–
COc1cc(OC)cc(N(C(=O)CNC(=O)c2cccs2)C(C(=O)NCC2CCCO2)c2ccccc2)c1 (configuration not stated)	-15.2	0.206 µM [falling, single point]	–
CCN(CC(=O)Nc1ccc(OC)cc1)C(=O)c1cc(-c2cccs2)nn1-c1ccccc1	47.1	–	14.6 µM [rising, single point]
CCOc1ccc(N=Cc2c(C)[nH]n(-c3nc4ccccc4[nH]3)c2=O)cc1	-29.5	29.1 µM [falling, single point]	–
Oc1ccccc1OCc1nc2ccccc2s1	-3.43	0.116 µM [falling, full curve, poor fit]	–
O=C(CSc1ccc2nnc(-c3ccccn3)n2n1)Nc1ccccc1C(F)(F)F	6.93	–	–
CN(C)S(=O)(=O)c1ccc(C(=O)/C=C/c2cccnc2)cc1	–	0.291 µM [falling, full curve]	–
Cc1ccc(OCC(=O)NCc2ccc3c(c2)OCO3)c([N+](=O)[O-])n1	128	2.59 µM [rising, partial curve]	20.6 µM [rising, single point]
NS(=O)(=O)c1ccc2c(c1)C1C=CCC1C(C1CC=CCC1)N2 (configuration not stated)	-18.4	8.2 µM [falling, partial curve]	–

Structure (SMILES)	cell number change [%]	AC50 [1]	AC50 [2]
CCOC(=O)CC1C(=O)NCCN1c1nc2c(C)cccn2c(=O)c1/C=C1\SC(=S)N(C(C)CC)C1=O (configuration not stated)	-97.1	14.6 µM [falling, partial curve, poor fit]	3.26 µM [falling, full curve]
N/C(=N\c1nc2ccccc2o1)NC(=O)c1ccccc1	–	4.11 µM [rising, partial curve]	6.51 µM [rising, single point]
CC(=O)Nc1nc(-c2ccc3ccccc3c2)cs1	34.7	–	29.1 µM [rising, single point]
O=C(Nc1cccc(S(=O)(=O)Nc2ccc(Cl)cc2)c1)c1ccc(Cl)nc1	-50.2	7.31 µM [falling, partial curve]	10.3 µM [falling, partial curve]
Cc1nn(CC(C)C)c(Cl)c1C(=O)N(c1ccc(Cl)cc1F)S(C)(=O)=O	16.1	–	–
CCOC(=O)CNS(=O)(=O)c1ccc2c3c(cccc13)C(=O)N2CC	1.49	29.1 µM [rising, single point]	–
O=S(=O)(c1ccc(Br)cc1)N1CCOC12CCCCC2	-8.92	–	–
COCC(=O)OCC(=O)Nc1cc([N+](=O)[O-])ccc1Cl	44.4	18.4 µM [rising, single point]	8.2 µM [rising, partial curve]
CN(c1ccccc1)S(=O)(=O)c1ccc(Cl)c(C(=O)OCC(N)=O)c1	-11.5	–	–
COc1ccc(Cl)cc1N(CC(=O)NC1CC2CCC1C2)S(=O)(=O)c1ccccc1 (configuration not stated)	-8.8	–	–
Cn1c(SCC(=O)NCC2CCCO2)ncc(C(=O)Nc2ccc(Cl)cc2)c1=O (configuration not stated)	-5	–	–
N#CCCN(C(=O)COC(=O)c1cc(S(=O)(=O)N2CCOCC2)ccc1Cl)c1ccc(F)cc1	-17.5	29.1 µM [rising, single point]	–
Cc1ccc(NC(=O)CCCc2c[nH]c3ccccc23)nc1	34	–	35.5 µM [rising, partial curve]
O=C(CCn1c(=O)oc2ccccc21)NCCCN1CCOCC1	4.35	0.651 µM [falling, partial curve, poor fit]	–
Cc1ccc(/C=C/c2onc(C)c2S(=O)(=O)N2CCC(C(=O)N3CCCCC3)CC2)cc1	0.816	29.1 µM [falling, single point]	–
Cc1ccc(S(=O)(=O)N2CCC(C(=O)NCCCN3CCOCC3)CC2)cc1	-2.66	8.2 µM [rising, partial curve]	–
O=C(O)CSc1ncccn1	-43	0.517 µM [falling, full curve]	5.17 µM [falling, full curve]
CO[C@H]1[C@@H]2C=CO[C@@H](O[C@H]3O[C@@H](CO)[C@H](O)[C@@H](O)[C@@H]3O)[C@@H]2[C@@]2(CO)O[C@@H]12	3.37	0.259 µM [falling, single point]	–
Cn1cc(C(=O)N2CCN(C(=O)c3ccco3)CC2)c2c3ccccc3n(C)c2c1=O	25.2	–	–
N#CCCn1cc(C(=O)Nc2cccc(C(=O)O)c2)c(-c2ccc(Cl)cc2)n1	10.2	29.1 µM [rising, single point]	–

One compound at a time, as listed above. Values in the order: cell number change [%] | AC50 [1] | AC50 [2]
CN(c1ccccc1)S(=O)(=O)c1ccc(Cl)c(C(=O)OCC(N)=O)c1 in the list: -11.5 | – | –
CC(=O)Nc1nc(-c2ccc3ccccc3c2)cs1 in the list: 34.7 | – | 29.1 µM [rising, single point]
CCOC(=O)CC1C(=O)NCCN1c1nc2c(C)cccn2c(=O)c1/C=C1\SC(=S)N(C(C)CC)C1=O (configuration not stated) in the list: -97.1 | 14.6 µM [falling, partial curve, poor fit] | 3.26 µM [falling, full curve]
